# This is one part of the list.
# B1: TbCVNHOa (Tuber borchii), Q5MK11 (protein)
# chain: MSYADSSRNAVLTNGGRTLRAECRNADGNWVTSELDLDTCIGNPNGFLGWGMQNFSHSSEDIKLEEGGRKLTCRPKTVDGGFRERQGIDLNRIQNVNGRLVFQ
# Columns and labels:
# Test in all cases: glycan array binding signal (z-score within array); higher = stronger binding
# Conditions in all cases: glycan notation: IUPAC condensed, linker removed
# GalNAc(b1-3)GalNAc = target: GalNAc(b1-3)GalNAc
# Procedure, shortened: (§1)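 Glycan array data were curated from 3228 arrays in the Consortium for Functional Glycomics database and kept only where the protein sequence was available. Glycan names were converted to IUPAC-condensed notation, and columns mapping to the same glycan were averaged. The binding signal is a within-array Z-score, averaged across arrays of the same protein sequence at different concentrations or buffers and across linkers. Negative Z-scores can be read as non-binding.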
# GalNAc(b1-4)GlcNAc = target: GalNAc(b1-4)GlcNAc
# Procedure, shortened: as §1
# Glc(a1-4)Glc = target: Glc(a1-4)Glc
# Procedure, shortened: as §1
# Glc(a1-6)Glc(a1-6)Glc = target: Glc(a1-6)Glc(a1-6)Glc
# Procedure, shortened: as §1
# Glc(b1-4)Glc = target: Glc(b1-4)Glc
# Procedure, shortened: as §1
# Glc(b1-6)Glc = target: Glc(b1-6)Glc
# Procedure, shortened: as §1
# GlcA(b1-3)Gal = target: GlcA(b1-3)Gal
# Procedure, shortened: as §1
# GlcA(b1-3)GlcNAc = target: GlcA(b1-3)GlcNAc
# Procedure, shortened: as §1
# GlcA(b1-6)Gal = target: GlcA(b1-6)Gal
# Procedure, shortened: as §1
# [1] = target: GlcNAc(a1-3)Gal(b1-4)GlcNAc
# Procedure, shortened: as §1
# [2] = target: GlcNAc(a1-6)Gal(b1-4)GlcNAc
# Procedure, shortened: as §1
# [3] = target: GlcNAc(b1-2)Gal(b1-3)GalNAc
# Procedure, shortened: as §1
# [4] = target: GlcNAc(b1-2)Man(a1-3)[GlcNAc(b1-2)Man(a1-6)]Man(b1-4)GlcNAc(b1-4)GlcNAc
# Procedure, shortened: as §1
# GlcNAc(b1-3)Gal = target: GlcNAc(b1-3)Gal
# Procedure, shortened: as §1
# [5] = target: GlcNAc(b1-3)Gal(b1-3)GalNAc
# Procedure, shortened: as §1
# GlcNAc(b1-3)Gal(b1-4)Glc = target: GlcNAc(b1-3)Gal(b1-4)Glc
# Procedure, shortened: as §1
# [6] = target: GlcNAc(b1-3)Gal(b1-4)GlcNAc
# Procedure, shortened: as §1
# [7] = target: GlcNAc(b1-3)Gal(b1-4)GlcNAc(b1-3)Gal(b1-4)GlcNAc
# Procedure, shortened: as §1
# GlcNAc(b1-3)GalNAc = target: GlcNAc(b1-3)GalNAc
# Procedure, shortened: as §1
# GlcNAc(b1-3)Man = target: GlcNAc(b1-3)Man
# Procedure, shortened: as §1
# [8] = target: GlcNAc(b1-3)[GlcNAc(b1-4)][GlcNAc(b1-6)]GlcNAc
# Procedure, shortened: as §1
# [9] = target: GlcNAc(b1-3)[GlcNAc(b1-6)]Gal(b1-4)GlcNAc
# Procedure, shortened: as §1
# [10] = target: GlcNAc(b1-3)[GlcNAc(b1-6)]GalNAc
# Procedure, shortened: as §1
# [11] = target: GlcNAc(b1-4)Gal(b1-4)GlcNAc
# Procedure, shortened: as §1
# GlcNAc(b1-4)GlcNAc = target: GlcNAc(b1-4)GlcNAc
# Procedure, shortened: as §1
# [12] = target: GlcNAc(b1-4)GlcNAc(b1-4)GlcNAc
# Procedure, shortened: as §1
# [13] = target: GlcNAc(b1-4)GlcNAc(b1-4)GlcNAc(b1-4)GlcNAc(b1-4)GlcNAc
# Procedure, shortened: as §1
# [14] = target: GlcNAc(b1-4)GlcNAc(b1-4)GlcNAc(b1-4)GlcNAc(b1-4)GlcNAc(b1-4)GlcNAc
# Procedure, shortened: as §1
# [15] = target: GlcNAc(b1-4)[GlcNAc(b1-6)]GalNAc
# Procedure, shortened: as §1
# [16] = target: GlcNAc(b1-6)Gal(b1-4)GlcNAc
# Procedure, shortened: as §1
# GlcNAc(b1-6)GalNAc = target: GlcNAc(b1-6)GalNAc
# Procedure, shortened: as §1
# GlcNAc3Prop(b1-4)GlcNAc = target: GlcNAc3Prop(b1-4)GlcNAc
# Procedure, shortened: as §1
# Kdn(a2-3)Gal(b1-3)GlcNAc = target: Kdn(a2-3)Gal(b1-3)GlcNAc
# Procedure, shortened: as §1
# Kdn(a2-3)Gal(b1-4)GlcNAc = target: Kdn(a2-3)Gal(b1-4)GlcNAc
# Procedure, shortened: as §1
# [17] = target: Man(a1-2)Man(a1-2)Man(a1-3)Man
# Procedure, shortened: as §1
# [18] = target: Man(a1-2)Man(a1-2)Man(a1-6)[Man(a1-3)]Man
# Procedure, shortened: as §1
# Man(a1-2)Man(a1-3)Man = target: Man(a1-2)Man(a1-3)Man
# Procedure, shortened: as §1
# [19] = target: Man(a1-2)Man(a1-3)[Man(a1-2)Man(a1-6)]Man
# Procedure, shortened: as §1
# [20] = target: Man(a1-2)Man(a1-3)[Man(a1-2)Man(a1-6)]Man(a1-6)[Man(a1-2)Man(a1-2)Man(a1-3)]Man
# Procedure, shortened: as §1
# [21] = target: Man(a1-2)Man(a1-3)[Man(a1-2)Man(a1-6)]Man(a1-6)[Man(a1-2)Man(a1-2)Man(a1-3)]Man(b1-4)GlcNAc(b1-4)GlcNAc
# Procedure, shortened: as §1
# [22] = target: Man(a1-2)Man(a1-3)[Man(a1-2)Man(a1-6)]Man(a1-6)[Man(a1-3)[Man(a1-6)]Man(a1-6)]Man(b1-4)GlcNAc(b1-4)GlcNAc
# Procedure, shortened: as §1
# [23] = target: Man(a1-2)Man(a1-3)[Man(a1-6)]Man(a1-6)[Man(a1-2)Man(a1-3)]Man(b1-4)GlcNAc(b1-4)GlcNAc
# Procedure, shortened: as §1
# [24] = target: Man(a1-2)Man(a1-6)[Man(a1-3)]Man(a1-6)[Man(a1-2)Man(a1-2)Man(a1-3)]Man
# Procedure, shortened: as §1
# [25] = target: Man(a1-2)Man(a1-6)[Man(a1-3)]Man(a1-6)[Man(a1-2)Man(a1-2)Man(a1-3)]Man(b1-4)GlcNAc(b1-4)GlcNAc
# Procedure, shortened: as §1
# Man(a1-3)[Man(a1-6)]Man = target: Man(a1-3)[Man(a1-6)]Man
# Procedure, shortened: as §1
binder,measurement,setting,value
B1,glycan array binding signal (z-score),GalNAc(b1-3)GalNAc,0.171
same,glycan array binding signal (z-score),GalNAc(b1-4)GlcNAc,-0.067
same,glycan array binding signal (z-score),Glc(a1-4)Glc,-0.277
same,glycan array binding signal (z-score),Glc(a1-6)Glc(a1-6)Glc,0.202
same,glycan array binding signal (z-score),Glc(b1-4)Glc,-0.266
same,glycan array binding signal (z-score),Glc(b1-6)Glc,1.09
same,glycan array binding signal (z-score),GlcA(b1-3)Gal,-0.018
same,glycan array binding signal (z-score),GlcA(b1-3)GlcNAc,-0.325
same,glycan array binding signal (z-score),GlcA(b1-6)Gal,0.061
same,glycan array binding signal (z-score),[1],-0.179
same,glycan array binding signal (z-score),[2],-0.249
same,glycan array binding signal (z-score),[3],-0.099
same,glycan array binding signal (z-score),[4],-0.125
same,glycan array binding signal (z-score),GlcNAc(b1-3)Gal,0.021
same,glycan array binding signal (z-score),[5],0.734
same,glycan array binding signal (z-score),GlcNAc(b1-3)Gal(b1-4)Glc,-0.284
same,glycan array binding signal (z-score),[6],-0.384
same,glycan array binding signal (z-score),[7],-0.324
same,glycan array binding signal (z-score),GlcNAc(b1-3)GalNAc,-0.057
same,glycan array binding signal (z-score),GlcNAc(b1-3)Man,-0.555
same,glycan array binding signal (z-score),[8],-0.314
same,glycan array binding signal (z-score),[9],0.219
same,glycan array binding signal (z-score),[10],-0.235
same,glycan array binding signal (z-score),[11],-0.133
same,glycan array binding signal (z-score),GlcNAc(b1-4)GlcNAc,-0.345
same,glycan array binding signal (z-score),[12],-0.236
same,glycan array binding signal (z-score),[13],-0.615
same,glycan array binding signal (z-score),[14],-0.762
same,glycan array binding signal (z-score),[15],-0.075
same,glycan array binding signal (z-score),[16],-0.101
same,glycan array binding signal (z-score),GlcNAc(b1-6)GalNAc,-0.297
same,glycan array binding signal (z-score),GlcNAc3Prop(b1-4)GlcNAc,-0.037
same,glycan array binding signal (z-score),Kdn(a2-3)Gal(b1-3)GlcNAc,-0.429
same,glycan array binding signal (z-score),Kdn(a2-3)Gal(b1-4)GlcNAc,-0.011
same,glycan array binding signal (z-score),[17],5.14
same,glycan array binding signal (z-score),[18],0.051
same,glycan array binding signal (z-score),Man(a1-2)Man(a1-3)Man,0.455
same,glycan array binding signal (z-score),[19],-0.133
same,glycan array binding signal (z-score),[20],-0.719
same,glycan array binding signal (z-score),[21],-0.347
same,glycan array binding signal (z-score),[22],-0.309
same,glycan array binding signal (z-score),[23],0.155
same,glycan array binding signal (z-score),[24],-0.18
same,glycan array binding signal (z-score),[25],0.667
same,glycan array binding signal (z-score),Man(a1-3)[Man(a1-6)]Man,-0.273

# Two consecutive entries out of the list so far, for reference:
binder,measurement,setting,value
B1,glycan array binding signal (z-score),GlcNAc(b1-3)Man,-0.555
same,glycan array binding signal (z-score),[8],-0.314

# Source: the supplement of paper PMC8728848
